{"sequences": {"note": "The chains behind the UniProt entries cited, without tags or fusion partners.", "UniProt Q96P20, whole entry": "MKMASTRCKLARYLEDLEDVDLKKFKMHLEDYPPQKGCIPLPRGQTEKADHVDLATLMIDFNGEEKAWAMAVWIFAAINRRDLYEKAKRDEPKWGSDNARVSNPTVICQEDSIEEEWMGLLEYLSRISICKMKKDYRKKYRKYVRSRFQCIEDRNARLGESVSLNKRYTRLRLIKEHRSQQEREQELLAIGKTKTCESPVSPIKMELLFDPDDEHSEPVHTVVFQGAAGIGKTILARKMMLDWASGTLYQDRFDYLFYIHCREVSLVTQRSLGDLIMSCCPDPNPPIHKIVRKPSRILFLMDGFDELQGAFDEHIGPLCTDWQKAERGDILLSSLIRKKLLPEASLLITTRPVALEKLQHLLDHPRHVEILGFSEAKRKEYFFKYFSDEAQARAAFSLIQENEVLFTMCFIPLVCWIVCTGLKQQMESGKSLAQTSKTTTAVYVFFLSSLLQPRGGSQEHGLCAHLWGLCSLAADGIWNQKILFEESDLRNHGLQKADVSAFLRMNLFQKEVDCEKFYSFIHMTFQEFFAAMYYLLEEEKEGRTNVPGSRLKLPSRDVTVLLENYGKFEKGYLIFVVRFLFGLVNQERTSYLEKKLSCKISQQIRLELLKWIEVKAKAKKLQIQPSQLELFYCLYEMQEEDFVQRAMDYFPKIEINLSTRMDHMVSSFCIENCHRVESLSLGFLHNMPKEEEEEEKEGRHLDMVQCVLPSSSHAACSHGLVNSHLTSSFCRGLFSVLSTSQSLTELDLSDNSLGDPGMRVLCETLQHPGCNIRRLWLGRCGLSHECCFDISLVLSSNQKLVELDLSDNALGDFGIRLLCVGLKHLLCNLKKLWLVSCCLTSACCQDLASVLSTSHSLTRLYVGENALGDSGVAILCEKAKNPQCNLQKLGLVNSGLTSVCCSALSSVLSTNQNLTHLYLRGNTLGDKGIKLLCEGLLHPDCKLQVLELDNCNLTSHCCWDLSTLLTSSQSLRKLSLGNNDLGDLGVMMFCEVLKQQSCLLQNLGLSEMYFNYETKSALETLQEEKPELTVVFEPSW"}, "source": "patent US20260285831A1", "about": "“LACTAM DERIVATIVES FOR INHIBITING NLRP3 AND USES THEREOF” (Ventus Therapeutics U.S., Inc., priority 2023, published 2026)", "molecular_target": "T1, human NLRP3 (Homo sapiens, UniProt Q96P20)", "T1 construct": "Human whole blood is drawn from healthy volunteers after obtaining written informed consent; from tissue; host or cells: human whole blood from healthy volunteers (heparin lithium tubes)", "test": "Human whole blood (hWB) NLRP3 assay (IL-1β release after LPS priming and ATP activation)", "format": "cell-based", "details": "isomer comparison, in words", "description": "Human Whole Blood (hWB) NLRP3 Assay\nHuman whole blood is drawn from healthy volunteers after obtaining written informed consent. Heparin lithium coated tubes are used to collect blood from volunteers. Blood samples are distributed on 96 well plates using 90 μl per well.\nPriming procedure: Priming is performed by adding 5 μl of LPS (026:B6; Sigma L-2654) at a final concentration of 1 μg/ml for 4.5 hours in a humidified incubator with 37° C., 5% CO2. Thirty minutes prior to NLRP3 activation, 5 μl of a 20× compound solution or vehicle (2% dimethylsulfoxide (DMSO)) is added to each well and plates were incubated on a shaker (450 rpm) in a humidified incubator with 37° C., 5% CO2.\nAlternative priming procedure: Thirty minutes prior to LPS priming, 5 μl of a 20× compound solution or vehicle (2% dimethylsulfoxide (DMSO)) is added to each well and plates were incubated on a shaker (450 rpm) in a humidified incubator with 37° C., 5% CO2. Priming is performed by adding 5 μl of LPS (026:B6; Sigma L-2654) at a final concentration of 1 μg/ml for 5 hours in a humidified incubator with 37° C., 5% CO2.\nActivation is then performed by adding 3.3 μl of a 31×ATP solution per well. […] IL-10 levels in the supernatant were analyzed using a mesoscale discovery assay (MSD K151TUK) according to the manufacturers' instructions. […]", "note": "At least one compound was matched to its structure with a doubt left.", "data": [{"smiles": "CC1(C)C(=O)N([C@@H]2CCN(CCCC(=O)O)C2=O)c2c(F)cc(C3CC3)c(F)c21", "note": "[Compound 16A, (R)-4-(3-(5-cyclopropyl-4,7-difluoro-3,3-dimethyl-2-oxoindolin-1-yl)-2-oxopyrrolidin-1-yl)butanoic acid]", "values": [{"measurement": "hWB NLRP3 inhibitory activity compared to the (S)-isomer", "value": "more active isomer"}]}]}
